Experimental data: PubChem BioAssay AID1224830 (NIAID, 2016)
In all, the deposit lists about 18,000 reagents; shown is an unselected part. About 2,900 of them (16%) count as active. 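Calls are made per well; low scores hint the gene aids the LPS response, high scores that it dampens it.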 Entries without a mark were called inactive. Repeated entries: four replicate wells of each siRNA pool.

Test: 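Host factors that control LPS-induced TNF expression in human macrophages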 (primary screen)
Cells: human THP-1 monocytic leukaemia cells, TNF dual-luciferase reporter clone, PMA-differentiated to macrophage-like cells
Knock-down reagent: siRNA pool against human genes, 50 nM
Duration: LPS for 4 h, given about 3 days after siRNA transfection
Challenge: bacterial LPS (TLR4 ligand), 10 ng/ml
Measured: 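TNF firefly reporter luminescence divided by renilla, normalised to the plate median, then turned into a robust z-score for each replicate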
Direction: TNF reporter robust z-score: higher = stronger TNF reporter response to LPS
Rule for the call: 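a well is active when its z-score exceeds 2.8 or falls below -1.5; control wells carry no call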

Target gene	TNF reporter robust z-score
MMP16 (matrix metallopeptidase 16)	0.28
MMP16 (matrix metallopeptidase 16)	1.65
MMP16 (matrix metallopeptidase 16)	0.68
MMP16 (matrix metallopeptidase 16)	-0.07
TFF3 (trefoil factor 3)	-0.6
TFF3 (trefoil factor 3)	-0.62
TFF3 (trefoil factor 3)	-0.9
TFF3 (trefoil factor 3)	-0.43
OXGR1 (oxoglutarate receptor 1)	-0.78
OXGR1 (oxoglutarate receptor 1)	-0.27
OXGR1 (oxoglutarate receptor 1)	-0.61
OXGR1 (oxoglutarate receptor 1)	-0.65
VRK3 (VRK serine/threonine kinase 3)	-0.76
VRK3 (VRK serine/threonine kinase 3)	-0.86
VRK3 (VRK serine/threonine kinase 3)	-0.45
VRK3 (VRK serine/threonine kinase 3)	0.2
CDIP1 (cell death inducing p53 target 1)	0.18
CDIP1 (cell death inducing p53 target 1)	0.49
CDIP1 (cell death inducing p53 target 1)	1.09
SLFN12 (schlafen family member 12)	-1.07
SLFN12 (schlafen family member 12)	-1.53 (active)
SLFN12 (schlafen family member 12)	-1.61 (active)
SLFN12 (schlafen family member 12)	-1.37
OR5V1 (olfactory receptor family 5 subfamily V member 1)	-0.15
OR5V1 (olfactory receptor family 5 subfamily V member 1)	-0.4
OR5V1 (olfactory receptor family 5 subfamily V member 1)	0.35
OR5V1 (olfactory receptor family 5 subfamily V member 1)	-0.67
UNC50 (unc-50 inner nuclear membrane RNA binding protein)	1.81
UNC50 (unc-50 inner nuclear membrane RNA binding protein)	0.53
UNC50 (unc-50 inner nuclear membrane RNA binding protein)	-0.82
UNC50 (unc-50 inner nuclear membrane RNA binding protein)	0.76
AKR1E2 (aldo-keto reductase family 1 member E2)	-1.18
AKR1E2 (aldo-keto reductase family 1 member E2)	-0.21
AKR1E2 (aldo-keto reductase family 1 member E2)	-0.83
AKR1E2 (aldo-keto reductase family 1 member E2)	-0.04
GDPD1 (glycerophosphodiester phosphodiesterase domain containing 1)	-1.5
GDPD1 (glycerophosphodiester phosphodiesterase domain containing 1)	-1.37
GDPD1 (glycerophosphodiester phosphodiesterase domain containing 1)	-1.33
CLN3 (CLN3 lysosomal/endosomal transmembrane protein, battenin)	-0.86
CLN3 (CLN3 lysosomal/endosomal transmembrane protein, battenin)	0.67
CLN3 (CLN3 lysosomal/endosomal transmembrane protein, battenin)	0.5
CLN3 (CLN3 lysosomal/endosomal transmembrane protein, battenin)	-0.07
ZMYND15 (zinc finger MYND-type containing 15)	0.09
ZMYND15 (zinc finger MYND-type containing 15)	0.36
ZMYND15 (zinc finger MYND-type containing 15)	1.2
ZMYND15 (zinc finger MYND-type containing 15)	0.32
MRPL55 (mitochondrial ribosomal protein L55)	-1.1
MRPL55 (mitochondrial ribosomal protein L55)	0.78
MRPL55 (mitochondrial ribosomal protein L55)	-1.22
MRPL55 (mitochondrial ribosomal protein L55)	0.38
HORMAD2 (HORMA domain containing 2)	-1.34
HORMAD2 (HORMA domain containing 2)	-0.55
HORMAD2 (HORMA domain containing 2)	-1.33
HORMAD2 (HORMA domain containing 2)	-0.41
RHCG (Rh family C glycoprotein)	-0.6
RHCG (Rh family C glycoprotein)	0.34
RHCG (Rh family C glycoprotein)	0.37
RHCG (Rh family C glycoprotein)	0.77
LCE2B (late cornified envelope 2B)	-0.07
LCE2B (late cornified envelope 2B)	-0.03
LCE2B (late cornified envelope 2B)	1.06
LCE2B (late cornified envelope 2B)	-0.41
KRT32 (keratin 32)	0.86
KRT32 (keratin 32)	-0.22
KRT32 (keratin 32)	-0.39
KRT32 (keratin 32)	-0.3
LAGE3 (L antigen family member 3)	-1.15
LAGE3 (L antigen family member 3)	-1.05
LAGE3 (L antigen family member 3)	-1.5
LAGE3 (L antigen family member 3)	-0.98
AFDN-DT (AFDN divergent transcript)	0.78
AFDN-DT (AFDN divergent transcript)	1.36
AFDN-DT (AFDN divergent transcript)	0.59
AFDN-DT (AFDN divergent transcript)	0.95
SPINK2 (serine peptidase inhibitor Kazal type 2)	-0.03
SPINK2 (serine peptidase inhibitor Kazal type 2)	-0.71
SPINK2 (serine peptidase inhibitor Kazal type 2)	-0.3
SPINK2 (serine peptidase inhibitor Kazal type 2)	0.65
CLDN14 (claudin 14)	-1.17
CLDN14 (claudin 14)	-1.42
CLDN14 (claudin 14)	-1.41
CLDN14 (claudin 14)	-1.28
MCM6 (minichromosome maintenance complex component 6)	1.81
MCM6 (minichromosome maintenance complex component 6)	-0.4
MCM6 (minichromosome maintenance complex component 6)	0.14
MCM6 (minichromosome maintenance complex component 6)	-0.16
OTUD3 (OTU deubiquitinase 3)	1.41
OTUD3 (OTU deubiquitinase 3)	1.82
OTUD3 (OTU deubiquitinase 3)	0.96
OTUD3 (OTU deubiquitinase 3)	2.5
ATP2C1 (ATPase secretory pathway Ca2+ transporting 1)	-1.04
ATP2C1 (ATPase secretory pathway Ca2+ transporting 1)	-0.31
ATP2C1 (ATPase secretory pathway Ca2+ transporting 1)	-1.01
ATP2C1 (ATPase secretory pathway Ca2+ transporting 1)	-0.81
UNC93A (unc-93 homolog A)	0.11
UNC93A (unc-93 homolog A)	1.91
UNC93A (unc-93 homolog A)	3.6 (active)
UNC93A (unc-93 homolog A)	2.81 (active)
FAM131B (family with sequence similarity 131 member B)	3.25 (active)
FAM131B (family with sequence similarity 131 member B)	6.29 (active)
FAM131B (family with sequence similarity 131 member B)	2.78
FAM131B (family with sequence similarity 131 member B)	4.11 (active)
UBQLN2 (ubiquilin 2)	-0.63
UBQLN2 (ubiquilin 2)	-0.2
UBQLN2 (ubiquilin 2)	0.65
UBQLN2 (ubiquilin 2)	-0.42
RRAGD (Ras related GTP binding D)	1.75
RRAGD (Ras related GTP binding D)	0.54
RRAGD (Ras related GTP binding D)	-0.61
RRAGD (Ras related GTP binding D)	0.71
